Measurements reported in PubChem BioAssay AID1224830 (NIAID, 2016)
In all, the deposit lists about 18,000 reagents; shown is a random part of them. Of all reagents, about 2,900 (16%) got an active call. 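Calls are made per well; low scores hint the gene aids the LPS response, high scores that it dampens it.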 A number with no mark means an inactive call. Repeated entries: four replicate wells of each siRNA pool.

Aim: 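Regulators of TLR4 signalling towards TNF-alpha in macrophage-like cells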 (primary screen)
Cell system: human THP-1 monocytic leukaemia cells, TNF dual-luciferase reporter clone, PMA-differentiated to macrophage-like cells
Reagents: siRNA pool against human genes, 50 nM
Duration: LPS for 4 h, given about 3 days after siRNA transfection
Conditions: bacterial LPS (TLR4 ligand), 10 ng/ml
Measured: 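Ratio of firefly to renilla light, scaled to the plate median and expressed as a robust z-score per replicate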
Reading the numbers: TNF reporter robust z-score: higher = stronger TNF reporter response to LPS
Active means: 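a well is active when its z-score exceeds 2.8 or falls below -1.5; control wells carry no call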

no.	target gene	TNF reporter robust z-score
1	NR1H2 (nuclear receptor subfamily 1 group H member 2)	1.07
2	NR1H2 (nuclear receptor subfamily 1 group H member 2)	1.47
3	NR1H2 (nuclear receptor subfamily 1 group H member 2)	0.58
4	NR1H2 (nuclear receptor subfamily 1 group H member 2)	2.47
5	ELF2 (E74 like ETS transcription factor 2)	1.13
6	ELF2 (E74 like ETS transcription factor 2)	1.72
7	ELF2 (E74 like ETS transcription factor 2)	1.57
8	ELF2 (E74 like ETS transcription factor 2)	0.47
9	SIGIRR (single Ig and TIR domain containing)	-0.24
10	SIGIRR (single Ig and TIR domain containing)	1.29
11	SIGIRR (single Ig and TIR domain containing)	0.24
12	SIGIRR (single Ig and TIR domain containing)	1.71
13	PNPLA8 (patatin like domain 8, phospholipase A2)	0.68
14	PNPLA8 (patatin like domain 8, phospholipase A2)	1.72
15	PNPLA8 (patatin like domain 8, phospholipase A2)	0.87
16	PNPLA8 (patatin like domain 8, phospholipase A2)	0.34
17	MRPL58 (mitochondrial ribosomal protein L58)	0.09
18	MRPL58 (mitochondrial ribosomal protein L58)	0.53
19	MRPL58 (mitochondrial ribosomal protein L58)	1.32
20	MRPL58 (mitochondrial ribosomal protein L58)	1.92
21	HPS1 (HPS1 biogenesis of lysosomal organelles complex 3 subunit 1)	2.04
22	HPS1 (HPS1 biogenesis of lysosomal organelles complex 3 subunit 1)	1.81
23	HPS1 (HPS1 biogenesis of lysosomal organelles complex 3 subunit 1)	1.6
24	HPS1 (HPS1 biogenesis of lysosomal organelles complex 3 subunit 1)	3.31 (active)
25	TUBB8 (tubulin beta 8 class VIII)	-0.42
26	TUBB8 (tubulin beta 8 class VIII)	0.69
27	TUBB8 (tubulin beta 8 class VIII)	-0.13
28	TUBB8 (tubulin beta 8 class VIII)	-0.22
29	SLC2A8	1.11
30	SLC2A8	0.65
31	SLC2A8	-0.57
32	SLC2A8	0.74
33	KLF8 (KLF transcription factor 8)	0.91
34	KLF8 (KLF transcription factor 8)	2.41
35	KLF8 (KLF transcription factor 8)	0.21
36	KLF8 (KLF transcription factor 8)	1.57
37	HECTD1 (HECT domain E3 ubiquitin protein ligase 1)	2.49
38	HECTD1 (HECT domain E3 ubiquitin protein ligase 1)	1.64
39	HECTD1 (HECT domain E3 ubiquitin protein ligase 1)	0.12
40	HECTD1 (HECT domain E3 ubiquitin protein ligase 1)	1.62
41	BACE2 (beta-secretase 2)	-0.29
42	BACE2 (beta-secretase 2)	-0.4
43	BACE2 (beta-secretase 2)	-0.73
44	CMTM3 (CKLF like MARVEL transmembrane domain containing 3)	-1.33
45	CMTM3 (CKLF like MARVEL transmembrane domain containing 3)	-1.05
46	CMTM3 (CKLF like MARVEL transmembrane domain containing 3)	-0.82
47	CMTM3 (CKLF like MARVEL transmembrane domain containing 3)	-1.23

Copied from the entries so far, 22 entries:
no.	target gene	TNF reporter robust z-score
7	ELF2 (E74 like ETS transcription factor 2)	1.57
8	ELF2 (E74 like ETS transcription factor 2)	0.47
9	SIGIRR (single Ig and TIR domain containing)	-0.24
10	SIGIRR (single Ig and TIR domain containing)	1.29
11	SIGIRR (single Ig and TIR domain containing)	0.24
12	SIGIRR (single Ig and TIR domain containing)	1.71
13	PNPLA8 (patatin like domain 8, phospholipase A2)	0.68
14	PNPLA8 (patatin like domain 8, phospholipase A2)	1.72
15	PNPLA8 (patatin like domain 8, phospholipase A2)	0.87
16	PNPLA8 (patatin like domain 8, phospholipase A2)	0.34
17	MRPL58 (mitochondrial ribosomal protein L58)	0.09
18	MRPL58 (mitochondrial ribosomal protein L58)	0.53
19	MRPL58 (mitochondrial ribosomal protein L58)	1.32
20	MRPL58 (mitochondrial ribosomal protein L58)	1.92
21	HPS1 (HPS1 biogenesis of lysosomal organelles complex 3 subunit 1)	2.04
22	HPS1 (HPS1 biogenesis of lysosomal organelles complex 3 subunit 1)	1.81
23	HPS1 (HPS1 biogenesis of lysosomal organelles complex 3 subunit 1)	1.6
24	HPS1 (HPS1 biogenesis of lysosomal organelles complex 3 subunit 1)	3.31 (active)
25	TUBB8 (tubulin beta 8 class VIII)	-0.42
26	TUBB8 (tubulin beta 8 class VIII)	0.69
27	TUBB8 (tubulin beta 8 class VIII)	-0.13
28	TUBB8 (tubulin beta 8 class VIII)	-0.22

Next records:
no.	target gene	TNF reporter robust z-score
48	CCL3L3 (C-C motif chemokine ligand 3 like 3)	0.37
49	CCL3L3 (C-C motif chemokine ligand 3 like 3)	-0.25
50	CCL3L3 (C-C motif chemokine ligand 3 like 3)	-0.08
51	CCL3L3 (C-C motif chemokine ligand 3 like 3)	-0.14
52	SLC6A6	0.3
53	SLC6A6	-0.23
54	SLC6A6	-0.29
55	SLC6A6	0.13
56	FAM47B (family with sequence similarity 47 member B)	-1.53 (active)
57	FAM47B (family with sequence similarity 47 member B)	0.25
58	FAM47B (family with sequence similarity 47 member B)	-0.63
59	FAM47B (family with sequence similarity 47 member B)	-0.09
60	WDR54 (WD repeat domain 54)	0.55
61	WDR54 (WD repeat domain 54)	0.41
62	WDR54 (WD repeat domain 54)	0.78
63	WDR54 (WD repeat domain 54)	0.21
64	MAS1 (MAS1 proto-oncogene, G protein-coupled receptor)	0.06
65	MAS1 (MAS1 proto-oncogene, G protein-coupled receptor)	0.25
66	MAS1 (MAS1 proto-oncogene, G protein-coupled receptor)	0.74
67	MAS1 (MAS1 proto-oncogene, G protein-coupled receptor)	1.04
68	AEBP1 (AE binding protein 1)	-1
69	AEBP1 (AE binding protein 1)	-1.97 (active)
70	AEBP1 (AE binding protein 1)	-1.31
71	AEBP1 (AE binding protein 1)	-0.72
72	TMEM18 (transmembrane protein 18)	0.1
73	TMEM18 (transmembrane protein 18)	-1.1
74	TMEM18 (transmembrane protein 18)	4.11 (active)
75	TMEM18 (transmembrane protein 18)	2.62
76	SNCAIP (synuclein alpha interacting protein)	-0.3
77	SNCAIP (synuclein alpha interacting protein)	-0.09
78	SNCAIP (synuclein alpha interacting protein)	0.03
79	SNCAIP (synuclein alpha interacting protein)	0.17
80	GSTT1 (glutathione S-transferase theta 1)	-0.96
81	GSTT1 (glutathione S-transferase theta 1)	-0.35
82	GSTT1 (glutathione S-transferase theta 1)	-0.2
83	OR52N1 (olfactory receptor family 52 subfamily N member 1)	-0.55
84	OR52N1 (olfactory receptor family 52 subfamily N member 1)	-0.78
85	OR52N1 (olfactory receptor family 52 subfamily N member 1)	-0.89
86	OR52N1 (olfactory receptor family 52 subfamily N member 1)	-0.15
87	TIMMDC1	0.05
88	TIMMDC1	0.58
89	TIMMDC1	-0.36
90	TIMMDC1	1.65
91	BEND2 (BEN domain containing 2)	-0.75
92	BEND2 (BEN domain containing 2)	0.2
93	BEND2 (BEN domain containing 2)	0.08
94	BEND2 (BEN domain containing 2)	0.92
95	DNAJA4 (DnaJ heat shock protein family (Hsp40) member A4)	-1.71 (active)
96	DNAJA4 (DnaJ heat shock protein family (Hsp40) member A4)	-1.76 (active)
97	DNAJA4 (DnaJ heat shock protein family (Hsp40) member A4)	-1.69 (active)
98	DNAJA4 (DnaJ heat shock protein family (Hsp40) member A4)	-1.37
99	MYH8 (myosin heavy chain 8)	1.48
100	MYH8 (myosin heavy chain 8)	1.79
101	MYH8 (myosin heavy chain 8)	1.26
102	MYH8 (myosin heavy chain 8)	1.29
103	CACNG7 (calcium voltage-gated channel auxiliary subunit gamma 7)	-0.03
104	CACNG7 (calcium voltage-gated channel auxiliary subunit gamma 7)	0.43
105	CACNG7 (calcium voltage-gated channel auxiliary subunit gamma 7)	2.05
106	CACNG7 (calcium voltage-gated channel auxiliary subunit gamma 7)	0.9
107	ADA2 (adenosine deaminase 2)	-0.38
108	ADA2 (adenosine deaminase 2)	0.22
109	ADA2 (adenosine deaminase 2)	0.19
110	ADA2 (adenosine deaminase 2)	-0.46
111	TAGLN2 (transgelin 2)	-0.14
112	TAGLN2 (transgelin 2)	0.5
113	TAGLN2 (transgelin 2)	0.08
114	TAGLN2 (transgelin 2)	-1.09
115	ELANE (elastase, neutrophil expressed)	-0.16
116	ELANE (elastase, neutrophil expressed)	0.65
117	ELANE (elastase, neutrophil expressed)	0.76
118	ELANE (elastase, neutrophil expressed)	-0.1
119	SLC47A2	-1.32
120	SLC47A2	-0.45
121	SLC47A2	-0.48
122	FBN3 (fibrillin 3)	0.37
123	FBN3 (fibrillin 3)	-0.46
124	FBN3 (fibrillin 3)	0.74
125	FBN3 (fibrillin 3)	0.17
126	RICTOR (RPTOR independent companion of MTOR complex 2)	1
127	RICTOR (RPTOR independent companion of MTOR complex 2)	1.07
128	RICTOR (RPTOR independent companion of MTOR complex 2)	1.02
129	RICTOR (RPTOR independent companion of MTOR complex 2)	3.46 (active)
130	MPV17 (mitochondrial inner membrane protein MPV17)	4.58 (active)
131	MPV17 (mitochondrial inner membrane protein MPV17)	7.09 (active)
132	MPV17 (mitochondrial inner membrane protein MPV17)	4.47 (active)
133	MPV17 (mitochondrial inner membrane protein MPV17)	3.51 (active)
134	ILDR1 (immunoglobulin like domain containing receptor 1)	-0.57
135	ILDR1 (immunoglobulin like domain containing receptor 1)	1.3
136	ILDR1 (immunoglobulin like domain containing receptor 1)	0.19
137	ILDR1 (immunoglobulin like domain containing receptor 1)	0.63
138	MYDGF (myeloid derived growth factor)	0.35
139	MYDGF (myeloid derived growth factor)	-0.12
140	MYDGF (myeloid derived growth factor)	0.51
141	MYDGF (myeloid derived growth factor)	0.94
